Source: article PMC5384328
These are yes or no findings as the source states them, for the method shown. Binding seen in cells or lysates may run through a third protein. Some results given as binding are weak or reduced against the parent protein; the word gives no strength.

Sequences of proteins named here, by UniProt entry; tags and fusion partners are left off.
UniProt P55060: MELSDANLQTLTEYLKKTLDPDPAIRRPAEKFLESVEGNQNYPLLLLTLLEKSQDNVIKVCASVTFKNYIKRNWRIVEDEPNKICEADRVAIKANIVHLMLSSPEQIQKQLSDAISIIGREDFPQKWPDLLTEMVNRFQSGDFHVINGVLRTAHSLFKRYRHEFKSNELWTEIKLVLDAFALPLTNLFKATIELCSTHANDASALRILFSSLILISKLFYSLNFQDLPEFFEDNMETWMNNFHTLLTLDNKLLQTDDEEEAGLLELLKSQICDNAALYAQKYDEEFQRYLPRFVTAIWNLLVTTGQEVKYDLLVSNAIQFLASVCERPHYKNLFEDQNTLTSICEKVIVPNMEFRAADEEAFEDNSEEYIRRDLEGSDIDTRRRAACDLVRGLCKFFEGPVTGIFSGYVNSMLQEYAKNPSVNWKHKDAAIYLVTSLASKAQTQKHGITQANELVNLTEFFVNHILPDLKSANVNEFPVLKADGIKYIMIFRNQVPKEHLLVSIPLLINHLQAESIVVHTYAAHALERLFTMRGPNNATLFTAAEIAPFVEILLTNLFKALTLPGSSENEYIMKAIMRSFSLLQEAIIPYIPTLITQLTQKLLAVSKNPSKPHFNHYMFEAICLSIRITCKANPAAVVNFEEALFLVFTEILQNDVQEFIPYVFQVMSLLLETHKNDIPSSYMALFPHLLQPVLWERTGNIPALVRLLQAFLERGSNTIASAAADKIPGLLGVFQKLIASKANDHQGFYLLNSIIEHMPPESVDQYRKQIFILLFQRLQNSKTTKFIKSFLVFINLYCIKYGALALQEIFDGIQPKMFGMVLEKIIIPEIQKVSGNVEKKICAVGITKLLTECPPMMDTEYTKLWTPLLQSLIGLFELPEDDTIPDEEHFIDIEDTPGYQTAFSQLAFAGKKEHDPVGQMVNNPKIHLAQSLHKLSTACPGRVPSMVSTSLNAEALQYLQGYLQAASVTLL
UniProt P52701: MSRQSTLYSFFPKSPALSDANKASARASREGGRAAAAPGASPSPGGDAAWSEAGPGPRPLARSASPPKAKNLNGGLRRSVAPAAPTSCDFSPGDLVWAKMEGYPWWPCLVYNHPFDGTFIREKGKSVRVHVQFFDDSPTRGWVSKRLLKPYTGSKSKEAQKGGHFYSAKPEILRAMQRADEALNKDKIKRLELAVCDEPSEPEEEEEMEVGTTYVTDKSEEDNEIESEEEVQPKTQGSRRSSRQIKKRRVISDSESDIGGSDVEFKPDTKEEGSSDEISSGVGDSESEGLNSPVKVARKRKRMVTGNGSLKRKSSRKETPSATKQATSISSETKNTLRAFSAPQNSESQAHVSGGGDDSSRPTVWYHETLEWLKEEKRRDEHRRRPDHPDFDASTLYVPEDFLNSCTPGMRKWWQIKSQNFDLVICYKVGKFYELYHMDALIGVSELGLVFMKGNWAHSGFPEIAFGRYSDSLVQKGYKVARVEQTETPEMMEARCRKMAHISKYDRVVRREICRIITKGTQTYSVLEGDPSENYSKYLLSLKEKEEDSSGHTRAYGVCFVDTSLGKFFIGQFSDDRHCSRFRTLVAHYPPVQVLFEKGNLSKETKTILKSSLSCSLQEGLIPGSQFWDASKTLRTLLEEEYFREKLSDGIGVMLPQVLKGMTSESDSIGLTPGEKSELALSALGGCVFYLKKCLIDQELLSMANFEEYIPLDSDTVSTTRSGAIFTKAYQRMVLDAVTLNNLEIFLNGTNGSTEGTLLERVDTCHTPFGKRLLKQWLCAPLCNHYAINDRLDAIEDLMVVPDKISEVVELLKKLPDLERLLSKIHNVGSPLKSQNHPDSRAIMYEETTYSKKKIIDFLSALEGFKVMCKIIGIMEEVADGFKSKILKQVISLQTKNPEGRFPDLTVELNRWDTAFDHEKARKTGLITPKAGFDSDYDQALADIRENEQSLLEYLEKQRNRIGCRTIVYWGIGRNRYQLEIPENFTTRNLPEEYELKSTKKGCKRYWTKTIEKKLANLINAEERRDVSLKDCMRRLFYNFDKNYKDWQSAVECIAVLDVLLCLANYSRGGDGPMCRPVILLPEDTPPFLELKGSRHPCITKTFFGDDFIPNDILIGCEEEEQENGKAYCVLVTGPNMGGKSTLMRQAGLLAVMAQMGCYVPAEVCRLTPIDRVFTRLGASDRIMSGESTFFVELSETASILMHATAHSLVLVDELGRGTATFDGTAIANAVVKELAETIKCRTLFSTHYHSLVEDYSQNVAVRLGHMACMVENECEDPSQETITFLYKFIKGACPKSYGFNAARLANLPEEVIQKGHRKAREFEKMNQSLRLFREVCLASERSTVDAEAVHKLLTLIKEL

What was measured:
[1] = target: chromosome segregation 1-like (CSE1L) protein (human (endogenous in MNNG/HOS and U2OS)) (UniProt P55060); assay: co-IP; whole-cell lysates of MNNG/HOS and U2OS (3000 ug protein) immunoprecipitated with anti-CSE1L or anti-MSH6 antibody at 4 °C overnight, protein A/G magnetic beads, washed with PBS containing 1% Triton X-100; immunoblotting; IgG as negative control
[2] = target: mutS homolog 6 (MSH6) (human (endogenous in MNNG/HOS and U2OS)) (UniProt P52701); assay: as above

Substance	binding [1]	binding [2]
mutS homolog 6 (MSH6) (from UniProt P52701 1-1360)	binds	
chromosome segregation 1-like (CSE1L) protein (from UniProt P55060 1-971)		binds
